Results taken from the supplement of paper PMC7661543.
± gives the standard deviation of the averaged measurements. The effect of the compound repeats well; differences between the knockouts mostly do not.

Assays:
HCC-38 = experiment: relative cell number vs DMSO control (72 h) (% of DMSO); higher = less growth inhibition (more cells)
Method: (§1)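 QMAP-Seq: a pool of 5 breast cancer cell lines (ZR-75-1, SKBR3, HCC-38, MDA-MB-231, BT-20), each carrying 12 doxycycline-inducible Cas9 sgRNA perturbations (11 knockouts plus non-targeting sgNT), was treated with compounds for 72 h at four 10-fold doses (10 nM-10 uM or 1 nM-1 uM range). Barcodes were amplified and sequenced, and cell number was interpolated from 293T spike-in standard curves. The result is expressed as % of the median of DMSO wells. Two biological replicates.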

MDA-MB-231 = experiment: as above
Method: as §1

CC(C)(C(=O)NCC(F)(F)C(F)(F)F)C(=O)N[C@@H]1C(=O)Nc2ccccc2-c2ccccc21
relative cell number
Details	HCC-38	MDA-MB-231
sgRNA knockout: sgATF3, 10 nM	115 ± 7.3	87.2 ± 9
sgRNA knockout: sgATF3, 100 nM	119 ± 8.1	112.9 ± 0.58
sgRNA knockout: sgATF3, 1000 nM	101 ± 11	115 ± 7.5
sgRNA knockout: sgATF3, 10000 nM	120.7 ± 1.2	108 ± 30
sgRNA knockout: sgATF4, 10 nM	117.34 ± 0.087	117 ± 15
sgRNA knockout: sgATF4, 100 nM	105 ± 4.8	148 ± 45
sgRNA knockout: sgATF4, 1000 nM	107 ± 4.5	132 ± 41
sgRNA knockout: sgATF4, 10000 nM	109 ± 3.5	143 ± 21
sgRNA knockout: sgATF6, 10 nM	100 ± 41	97.1 ± 19
sgRNA knockout: sgATF6, 100 nM	125 ± 4.4	115 ± 22
sgRNA knockout: sgATF6, 1000 nM	108 ± 1.8	115.73 ± 0.017
sgRNA knockout: sgATF6, 10000 nM	121 ± 7.2	93.1 ± 17
sgRNA knockout: sgATG7, 10 nM	123 ± 1.5	108 ± 13
sgRNA knockout: sgATG7, 100 nM	108 ± 18	103 ± 3.9
sgRNA knockout: sgATG7, 1000 nM	104 ± 6.9	101.6 ± 0.48
sgRNA knockout: sgATG7, 10000 nM	122 ± 4.3	94.2 ± 18
sgRNA knockout: sgERN1, 10 nM	111 ± 4.4	89.8 ± 14
sgRNA knockout: sgERN1, 100 nM	108 ± 1.3	107 ± 16
sgRNA knockout: sgERN1, 1000 nM	115 ± 5.1	95 ± 6
sgRNA knockout: sgERN1, 10000 nM	115 ± 2.4	104 ± 1.7
sgRNA knockout: sgHSF1, 10 nM	100 ± 35	93.6 ± 9.4
sgRNA knockout: sgHSF1, 100 nM	140 ± 6.1	92.8 ± 24
sgRNA knockout: sgHSF1, 1000 nM	123 ± 31	84 ± 10
sgRNA knockout: sgHSF1, 10000 nM	118 ± 18	93.8 ± 4.7
sgRNA knockout: sgHSF2, 10 nM	117 ± 22	109 ± 2.6
sgRNA knockout: sgHSF2, 100 nM	122 ± 9.6	128 ± 3.6
sgRNA knockout: sgHSF2, 1000 nM	107 ± 11	114 ± 36
sgRNA knockout: sgHSF2, 10000 nM	122 ± 11	98.4 ± 14
sgRNA knockout: sgKEAP1, 10 nM	125 ± 60	102 ± 46
sgRNA knockout: sgKEAP1, 100 nM	131 ± 2.9	107 ± 11
sgRNA knockout: sgKEAP1, 1000 nM	121 ± 7.3	111 ± 8.5
sgRNA knockout: sgKEAP1, 10000 nM	148 ± 29	108 ± 14
sgRNA knockout: sgNFE2L2, 10 nM	119 ± 18	117 ± 18
sgRNA knockout: sgNFE2L2, 100 nM	99.5 ± 11	116 ± 20
sgRNA knockout: sgNFE2L2, 1000 nM	103.2 ± 0.62	103 ± 4.1
sgRNA knockout: sgNFE2L2, 10000 nM	106 ± 1.4	120 ± 1.7
sgRNA knockout: sgSLC35F2, 10 nM	112 ± 12	92.1 ± 16
sgRNA knockout: sgSLC35F2, 100 nM	107 ± 2.3	116 ± 2.1
sgRNA knockout: sgSLC35F2, 1000 nM	101 ± 13	111 ± 16
sgRNA knockout: sgSLC35F2, 10000 nM	110 ± 9.8	95.9 ± 14
sgRNA knockout: sgXBP1, 10 nM	113 ± 12	98.5 ± 34
sgRNA knockout: sgXBP1, 100 nM	110 ± 8.2	103 ± 30
sgRNA knockout: sgXBP1, 1000 nM	107 ± 8.5	109 ± 28
sgRNA knockout: sgXBP1, 10000 nM	109 ± 5.3	107 ± 6.4
